Laboratory results taken from publication PMC10735217.

By UniProt entry, the sequences of proteins in these tests, tags left out. Where a name states a change or a piece, a line headed by the entry shows the natural chain unless it says otherwise.
UniProt Q9Y2J4: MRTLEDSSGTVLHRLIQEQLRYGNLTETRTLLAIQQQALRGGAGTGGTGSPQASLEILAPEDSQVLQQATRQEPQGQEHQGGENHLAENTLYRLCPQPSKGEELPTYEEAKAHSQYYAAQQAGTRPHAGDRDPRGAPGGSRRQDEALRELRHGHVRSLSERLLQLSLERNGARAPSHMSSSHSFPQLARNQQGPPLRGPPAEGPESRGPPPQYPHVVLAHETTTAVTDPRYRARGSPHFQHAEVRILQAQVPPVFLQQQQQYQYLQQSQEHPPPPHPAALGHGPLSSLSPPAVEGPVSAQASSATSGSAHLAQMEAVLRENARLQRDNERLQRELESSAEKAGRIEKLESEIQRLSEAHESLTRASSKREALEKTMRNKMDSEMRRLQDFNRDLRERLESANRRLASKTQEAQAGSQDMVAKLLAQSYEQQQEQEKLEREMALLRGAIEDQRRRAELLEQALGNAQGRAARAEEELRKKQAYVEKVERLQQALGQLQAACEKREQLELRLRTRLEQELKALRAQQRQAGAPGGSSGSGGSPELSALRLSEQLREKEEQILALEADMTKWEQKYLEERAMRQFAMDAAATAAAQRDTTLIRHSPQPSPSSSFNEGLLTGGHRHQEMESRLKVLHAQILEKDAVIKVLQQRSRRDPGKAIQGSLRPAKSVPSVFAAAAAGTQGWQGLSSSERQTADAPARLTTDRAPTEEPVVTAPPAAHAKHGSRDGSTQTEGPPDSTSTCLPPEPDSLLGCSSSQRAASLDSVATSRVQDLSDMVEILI
UniProt P46937: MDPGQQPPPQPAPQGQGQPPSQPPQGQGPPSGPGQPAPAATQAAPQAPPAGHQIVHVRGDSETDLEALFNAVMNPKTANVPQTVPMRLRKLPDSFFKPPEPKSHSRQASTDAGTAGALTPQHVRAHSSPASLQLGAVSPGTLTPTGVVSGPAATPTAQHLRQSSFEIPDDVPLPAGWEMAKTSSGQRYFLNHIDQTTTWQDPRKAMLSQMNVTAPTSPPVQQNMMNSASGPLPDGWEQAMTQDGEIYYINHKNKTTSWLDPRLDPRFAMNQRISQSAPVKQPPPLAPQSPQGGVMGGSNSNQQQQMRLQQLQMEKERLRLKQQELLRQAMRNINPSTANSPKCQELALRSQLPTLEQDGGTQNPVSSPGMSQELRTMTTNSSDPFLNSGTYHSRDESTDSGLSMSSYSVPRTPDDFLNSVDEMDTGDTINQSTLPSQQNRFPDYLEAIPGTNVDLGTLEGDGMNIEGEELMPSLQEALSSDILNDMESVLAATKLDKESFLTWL

Assays:
Assay in all cases: co-IP; anti-FLAG M2 magnetic beads on lysates of HEK293T cells at high cell density co-expressing FLAG-AMOTL2 constructs and HA-YAP; overnight at 4 °C; eluted with FLAG peptide; anti-HA immunoblot
[1] = molecular target: FLAG-tagged double exon-skipped AMOTL2 (∆5∆9) (UniProt Q9Y2J4)
[2] = molecular target: FLAG-tagged exon 9-skipped AMOTL2 (∆9) (UniProt Q9Y2J4)
[3] = molecular target: FLAG-tagged exon 5-skipped AMOTL2 (∆5) (UniProt Q9Y2J4)

Measured: binding

HA-tagged YAP (Yes-associated protein) (from UniProt P46937 1-504)
binds: [1] | [2] | [3]

These are yes or no findings as the source states them, for the method shown. Binding seen in cells or lysates may run through a third protein. Binding can be weak; no strength is given.
